Laboratory results published in US20110306554A1, “PEPTIDE CAPABLE OF BINDING TO IMMUNOGLOBULIN” (priority 2009, published 2011).
Entries after “also recorded” stand apart in the source; their conditions may differ. Some entries share one result that the patent states for a list of compounds.

test system: binding between human C1q protein and human immunoglobulin (IgG); assay: Inhibition of binding between C1q and immunoglobulin (C1q spotted on nitrocellulose membrane, ALP-labeled IgG); details: peptide concentration 500 μg/ml, 400 ng human C1q per spot
Source text: Peptides were synthesized by GL Biochem (Shanghai), which have the following amino acid sequences: the amino acid sequence depicted in SEQ ID NO: 2 (peptide R2); a shorter amino acid sequence than this peptide, PGLYYF (SEQ ID NO: 1) (peptide R1); and amino acid sequences including the amino acid sequence depicted in SEQ ID NO: 2, SGKFTCKVPGLYYFT (SEQ ID NO: 3) (peptide R3), FTCKVPGLYYFTYHA (SEQ ID NO: 4) (peptide R4), STGKFTCKVPGLYYF (SEQ ID NO: 5) (peptide R5), and CKVPGLYYFVYHASH (SEQ ID NO: 7) (peptide R6). Each peptide was dissolved in DMSO to make a concentration of 10 mg/ml and stored.
Human C1q protein (Carbiochem) was dissolved in 10 mM HEPES, 300 mM NaCl, 40% glycerol (pH 7.2) to prepare a 200 μg/ml solution of human C1q protein. The solution of human C1q protein was spotted at a volume of 2 μl (400 ng) per spot onto a nitrocellulose membrane of a size of 5 mm by 15 mm (Hybond C; Amersham), which was then air-dried at room temperature for about one hour. The nitrocellulose membrane was soaked in TBS, incubated for 5 minutes, and blocked at room temperature for one hour using TBS (20 mM Tris-HCl, pH 7.5, 150 mM NaCl) containing 5% of a blocking agent (Amersham ECL blocking reagent; GE Healthcare). After washing lightly in TBS, the membrane was soaked in 20 μl of a solution of alkaline phosphatase (ALP)-labeled human immunoglobulin (IgG) (BECKMAN COULTER) diluted 1000-fold with TBS, which was mixed with each peptide solution to make a peptide concentration of 500 μg/ml, and subjected to reaction at room temperature for one hour. After washing lightly in a TTBS solution (TBS to which Tween 20 was added to the final concentration of 0.05%), the membrane was washed in the same solution three times for 10 minutes each, with shaking.
After the nitrocellulose membrane was washed lightly in a color development buffer for ALP (Tris-HCl containing 100 mM NaCl, 5 mM MgCl2, pH 9.5), the membrane was soaked in 30 μl of the color development buffer for ALP containing a BCIP/NBT solution (Promega), and subjected to color development at room temperature for 10 minutes. When color developments were achieved, the nitrocellulose membrane was soaked in a sufficient volume of distilled water to wash away the color development buffer. After washing, the nitrocellulose membrane was air-dried and the color developments were captured using a Multi Gauge (FUJIFILM).
The peptides listed in Table 3 were synthesized by GL Biochem (Shanghai). Each peptide was dissolved in DMSO to make a concentration of 10 mg/ml and stored. Experiments were carried out in a similar way to those in the section Examination of inhibitory activity (1) in Example 2, and peptides R1, R2, and R5 were also subjected to experiments as controls.
The peptides listed in Table 4 were synthesized by GL Biochem (Shanghai). For these peptides, peptide stability was improved by substituting a specific amino acid residue by the corresponding D-amino acid, or by substituting a cysteine residue in the amino acid sequence by a serine residue. That is, these peptides were designed to have prolonged half-lives and maintain their therapeutic or prophylactic effects within the body of subjects for extended periods. Each peptide was dissolved in DMSO to make a concentration of 10 mg/ml and stored. Experiments were carried out in a similar way to those in the section Examination of inhibitory activity (1) in Example 2, and peptides R1, R2, and R5 were used as controls.
The peptides listed in Table 5 were synthesized by GL Biochem (Shanghai). In the case of these peptides, peptide stability was improved both by substituting an amino acid residue by the corresponding D-amino acid and by substituting a cysteine residue in the amino acid sequence by a serine residue. That is, these peptides were designed to have prolonged half-lives and maintain their therapeutic or prophylactic effects within the body of subjects for extended periods. […]

Substance | inhibition of the binding between C1q and immunoglobulin
CKVPGLYYF (Immunoglobulin binding peptide) [R2] | binding was inhibited; also recorded: inhibit the binding
FTSKVPGLYYFTYHA (Immunoglobulin binding peptide) [R18] | inhibited the binding
KFTSKVPGLYYFVYH (Immunoglobulin binding peptide) [R17] | inhibited the binding
PGLYYF (Immunoglobulin binding peptide) [R1] | binding was inhibited; also recorded: inhibit the binding
PGdLYYF (PGLYYF; D-leucine; Immunoglobulin binding peptide) [R12] | inhibited the binding
SGKFTSKVPGLYYFT (Immunoglobulin binding peptide) [R14] | inhibited the binding
SKVPGLYYFVYHASH (Immunoglobulin binding peptide) [R16] | inhibited the binding
STGKFTSKVPGLYYF (Immunoglobulin binding peptide) [R15] | inhibited the binding
dFdTdSdKdVdPGdLdYdYdFdTdYdHdA (FTSKVPGLYYFTYHA; D-residues) [R22] | inhibited the binding
dSGdKdFdTdSdKdVdPGdLdYdYdFdT (SGKFTSKVPGLYYFT; D-residues) [R20] | inhibited the binding
dSdKdVdPGdLdYdYdF (SKVPGLYYF; D-amino acids; Immunoglobulin binding peptide) [R19] | inhibited the binding
dSdTGdKdFdTdSdKdVdPGdLdYdYdF (STGKFTSKVPGLYYF; D-residues) [R21] | inhibited the binding

same assay, conditions: peptide concentration 500 μg/ml, 400 ng human C1q per spot, listed as peptide R3

Substance | inhibition of the binding between C1q and immunoglobulin
SGKFTCKVPGLYYFT (Immunoglobulin binding peptide) [R3] | binding was inhibited; also recorded: inhibit the binding

same assay, conditions: peptide concentration 500 μg/ml, 400 ng human C1q per spot, listed as peptide R4

Substance | inhibition of the binding between C1q and immunoglobulin
FTCKVPGLYYFTYHA (Immunoglobulin binding peptide) [R4] | binding was inhibited; also recorded: inhibit the binding

same assay, conditions: peptide concentration 500 μg/ml, 400 ng human C1q per spot, listed as peptide R5

Substance | inhibition of the binding between C1q and immunoglobulin
STGKFTCKVPGLYYF (Immunoglobulin binding peptide) [R5] | binding was inhibited; also recorded: inhibit the binding

same assay, conditions: peptide concentration 500 μg/ml, 400 ng human C1q per spot, listed as peptide R6

Substance | inhibition of the binding between C1q and immunoglobulin
CKVPGLYYFVYHASH (Immunoglobulin binding peptide) [R6] | binding was inhibited; also recorded: inhibit the binding
